log2 fold change data for 21 targets are collected here from the supplement of paper PMC10849652.

Chains of the proteins cited; added tags and fusions are not shown. Lines headed by an entry give the natural chain unless they say otherwise; changes in a name come on top.
UniProt Q8N7Z5: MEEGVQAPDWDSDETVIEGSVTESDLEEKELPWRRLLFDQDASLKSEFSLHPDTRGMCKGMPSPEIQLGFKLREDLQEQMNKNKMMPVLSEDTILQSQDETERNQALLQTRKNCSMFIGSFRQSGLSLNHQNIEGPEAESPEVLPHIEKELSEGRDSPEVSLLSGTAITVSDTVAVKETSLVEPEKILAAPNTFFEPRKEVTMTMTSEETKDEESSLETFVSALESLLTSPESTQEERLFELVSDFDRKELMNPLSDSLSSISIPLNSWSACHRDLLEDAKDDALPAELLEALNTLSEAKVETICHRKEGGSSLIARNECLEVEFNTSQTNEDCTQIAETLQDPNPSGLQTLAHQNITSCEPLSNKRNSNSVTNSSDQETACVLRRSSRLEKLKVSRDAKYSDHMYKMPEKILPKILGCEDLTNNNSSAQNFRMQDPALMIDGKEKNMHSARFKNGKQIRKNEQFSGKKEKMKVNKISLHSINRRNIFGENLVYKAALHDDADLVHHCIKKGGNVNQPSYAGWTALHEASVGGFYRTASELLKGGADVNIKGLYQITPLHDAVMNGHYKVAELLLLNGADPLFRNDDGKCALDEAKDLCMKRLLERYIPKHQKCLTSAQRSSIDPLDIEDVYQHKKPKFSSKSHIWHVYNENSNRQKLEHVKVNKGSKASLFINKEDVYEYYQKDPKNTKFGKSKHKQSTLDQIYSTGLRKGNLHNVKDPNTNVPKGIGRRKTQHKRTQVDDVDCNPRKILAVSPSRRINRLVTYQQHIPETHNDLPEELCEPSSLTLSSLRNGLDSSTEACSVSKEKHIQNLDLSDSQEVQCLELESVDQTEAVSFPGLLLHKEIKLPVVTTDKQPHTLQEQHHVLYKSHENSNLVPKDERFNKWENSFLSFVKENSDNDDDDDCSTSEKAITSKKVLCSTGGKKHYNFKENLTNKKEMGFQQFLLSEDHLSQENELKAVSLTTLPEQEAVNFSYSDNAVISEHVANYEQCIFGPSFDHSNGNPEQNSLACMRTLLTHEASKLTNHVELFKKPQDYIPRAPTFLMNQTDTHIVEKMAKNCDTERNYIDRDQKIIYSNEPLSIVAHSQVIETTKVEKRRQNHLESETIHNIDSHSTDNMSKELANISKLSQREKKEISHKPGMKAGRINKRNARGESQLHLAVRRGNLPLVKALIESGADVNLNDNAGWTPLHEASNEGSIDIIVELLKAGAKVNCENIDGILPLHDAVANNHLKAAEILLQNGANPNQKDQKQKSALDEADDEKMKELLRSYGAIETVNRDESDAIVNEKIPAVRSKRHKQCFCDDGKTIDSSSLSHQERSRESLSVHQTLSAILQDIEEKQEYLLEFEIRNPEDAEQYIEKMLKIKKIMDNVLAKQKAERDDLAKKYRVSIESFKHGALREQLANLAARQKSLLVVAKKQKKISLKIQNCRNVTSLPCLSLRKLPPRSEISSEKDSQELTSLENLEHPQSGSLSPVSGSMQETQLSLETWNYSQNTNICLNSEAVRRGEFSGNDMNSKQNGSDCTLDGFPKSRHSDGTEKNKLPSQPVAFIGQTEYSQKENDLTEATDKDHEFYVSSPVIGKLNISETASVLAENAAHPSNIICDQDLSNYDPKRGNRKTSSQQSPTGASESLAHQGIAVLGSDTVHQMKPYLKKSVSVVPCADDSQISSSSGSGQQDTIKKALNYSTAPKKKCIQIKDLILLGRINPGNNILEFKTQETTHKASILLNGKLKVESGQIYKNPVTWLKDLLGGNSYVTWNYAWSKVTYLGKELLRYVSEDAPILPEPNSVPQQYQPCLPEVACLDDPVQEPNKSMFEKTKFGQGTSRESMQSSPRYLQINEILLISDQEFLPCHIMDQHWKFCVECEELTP
UniProt Q6P6B7: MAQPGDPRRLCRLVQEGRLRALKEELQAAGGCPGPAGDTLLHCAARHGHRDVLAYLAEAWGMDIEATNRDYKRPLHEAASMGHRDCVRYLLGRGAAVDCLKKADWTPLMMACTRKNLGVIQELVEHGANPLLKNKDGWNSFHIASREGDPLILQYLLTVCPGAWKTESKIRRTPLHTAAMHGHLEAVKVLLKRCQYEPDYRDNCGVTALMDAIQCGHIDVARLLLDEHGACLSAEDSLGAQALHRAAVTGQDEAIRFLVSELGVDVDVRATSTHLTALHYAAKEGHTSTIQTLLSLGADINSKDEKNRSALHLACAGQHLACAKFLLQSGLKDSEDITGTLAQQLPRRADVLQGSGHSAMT
UniProt Q4VCS5: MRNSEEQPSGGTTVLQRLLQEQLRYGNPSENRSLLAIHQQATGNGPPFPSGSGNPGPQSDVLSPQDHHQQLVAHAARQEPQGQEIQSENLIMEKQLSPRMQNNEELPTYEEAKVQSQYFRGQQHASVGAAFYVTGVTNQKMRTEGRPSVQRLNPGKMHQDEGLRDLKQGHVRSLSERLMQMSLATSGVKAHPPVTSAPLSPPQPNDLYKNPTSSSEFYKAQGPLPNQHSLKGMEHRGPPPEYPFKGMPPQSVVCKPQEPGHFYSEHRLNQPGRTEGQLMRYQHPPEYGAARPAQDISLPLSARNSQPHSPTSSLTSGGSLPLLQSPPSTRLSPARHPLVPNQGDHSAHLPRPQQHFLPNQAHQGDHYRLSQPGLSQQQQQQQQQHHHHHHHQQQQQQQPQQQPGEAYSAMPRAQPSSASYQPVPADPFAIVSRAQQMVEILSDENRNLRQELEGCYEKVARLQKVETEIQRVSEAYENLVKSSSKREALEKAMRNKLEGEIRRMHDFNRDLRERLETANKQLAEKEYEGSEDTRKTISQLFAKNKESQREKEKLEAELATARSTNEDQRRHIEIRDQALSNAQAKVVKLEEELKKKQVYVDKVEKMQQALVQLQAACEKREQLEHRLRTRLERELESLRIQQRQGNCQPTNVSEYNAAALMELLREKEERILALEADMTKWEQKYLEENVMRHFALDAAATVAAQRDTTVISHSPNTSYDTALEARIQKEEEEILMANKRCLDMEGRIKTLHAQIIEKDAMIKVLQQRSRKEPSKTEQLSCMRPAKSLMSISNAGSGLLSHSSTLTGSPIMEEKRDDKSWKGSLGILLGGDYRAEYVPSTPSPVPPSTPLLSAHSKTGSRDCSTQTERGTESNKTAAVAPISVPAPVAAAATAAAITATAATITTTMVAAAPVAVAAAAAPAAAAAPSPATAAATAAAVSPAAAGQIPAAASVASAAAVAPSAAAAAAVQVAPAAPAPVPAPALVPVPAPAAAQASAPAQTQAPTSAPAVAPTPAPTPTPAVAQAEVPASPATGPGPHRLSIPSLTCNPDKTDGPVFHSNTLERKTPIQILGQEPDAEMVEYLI
UniProt P13196: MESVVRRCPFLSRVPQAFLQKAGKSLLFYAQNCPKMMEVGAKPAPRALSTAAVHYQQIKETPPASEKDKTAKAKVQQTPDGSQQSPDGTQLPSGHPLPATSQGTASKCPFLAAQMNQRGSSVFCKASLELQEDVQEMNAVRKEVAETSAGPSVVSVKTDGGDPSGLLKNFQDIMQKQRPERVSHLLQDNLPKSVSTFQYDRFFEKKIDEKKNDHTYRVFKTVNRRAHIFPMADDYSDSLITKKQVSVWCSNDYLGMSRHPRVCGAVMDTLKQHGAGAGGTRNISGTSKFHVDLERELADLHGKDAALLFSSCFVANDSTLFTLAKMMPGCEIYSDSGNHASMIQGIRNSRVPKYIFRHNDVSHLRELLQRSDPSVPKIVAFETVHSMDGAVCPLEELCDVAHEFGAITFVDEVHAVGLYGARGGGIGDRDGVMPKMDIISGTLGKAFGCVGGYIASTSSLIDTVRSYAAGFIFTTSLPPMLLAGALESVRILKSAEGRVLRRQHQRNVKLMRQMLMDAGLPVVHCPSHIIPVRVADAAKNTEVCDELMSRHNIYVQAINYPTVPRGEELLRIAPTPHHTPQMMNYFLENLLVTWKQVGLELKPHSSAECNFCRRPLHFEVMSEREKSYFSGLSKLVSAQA
UniProt Q9BS18, whole entry, looked up: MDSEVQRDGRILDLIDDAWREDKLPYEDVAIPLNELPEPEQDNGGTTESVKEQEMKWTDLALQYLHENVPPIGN
UniProt Q9ULJ7: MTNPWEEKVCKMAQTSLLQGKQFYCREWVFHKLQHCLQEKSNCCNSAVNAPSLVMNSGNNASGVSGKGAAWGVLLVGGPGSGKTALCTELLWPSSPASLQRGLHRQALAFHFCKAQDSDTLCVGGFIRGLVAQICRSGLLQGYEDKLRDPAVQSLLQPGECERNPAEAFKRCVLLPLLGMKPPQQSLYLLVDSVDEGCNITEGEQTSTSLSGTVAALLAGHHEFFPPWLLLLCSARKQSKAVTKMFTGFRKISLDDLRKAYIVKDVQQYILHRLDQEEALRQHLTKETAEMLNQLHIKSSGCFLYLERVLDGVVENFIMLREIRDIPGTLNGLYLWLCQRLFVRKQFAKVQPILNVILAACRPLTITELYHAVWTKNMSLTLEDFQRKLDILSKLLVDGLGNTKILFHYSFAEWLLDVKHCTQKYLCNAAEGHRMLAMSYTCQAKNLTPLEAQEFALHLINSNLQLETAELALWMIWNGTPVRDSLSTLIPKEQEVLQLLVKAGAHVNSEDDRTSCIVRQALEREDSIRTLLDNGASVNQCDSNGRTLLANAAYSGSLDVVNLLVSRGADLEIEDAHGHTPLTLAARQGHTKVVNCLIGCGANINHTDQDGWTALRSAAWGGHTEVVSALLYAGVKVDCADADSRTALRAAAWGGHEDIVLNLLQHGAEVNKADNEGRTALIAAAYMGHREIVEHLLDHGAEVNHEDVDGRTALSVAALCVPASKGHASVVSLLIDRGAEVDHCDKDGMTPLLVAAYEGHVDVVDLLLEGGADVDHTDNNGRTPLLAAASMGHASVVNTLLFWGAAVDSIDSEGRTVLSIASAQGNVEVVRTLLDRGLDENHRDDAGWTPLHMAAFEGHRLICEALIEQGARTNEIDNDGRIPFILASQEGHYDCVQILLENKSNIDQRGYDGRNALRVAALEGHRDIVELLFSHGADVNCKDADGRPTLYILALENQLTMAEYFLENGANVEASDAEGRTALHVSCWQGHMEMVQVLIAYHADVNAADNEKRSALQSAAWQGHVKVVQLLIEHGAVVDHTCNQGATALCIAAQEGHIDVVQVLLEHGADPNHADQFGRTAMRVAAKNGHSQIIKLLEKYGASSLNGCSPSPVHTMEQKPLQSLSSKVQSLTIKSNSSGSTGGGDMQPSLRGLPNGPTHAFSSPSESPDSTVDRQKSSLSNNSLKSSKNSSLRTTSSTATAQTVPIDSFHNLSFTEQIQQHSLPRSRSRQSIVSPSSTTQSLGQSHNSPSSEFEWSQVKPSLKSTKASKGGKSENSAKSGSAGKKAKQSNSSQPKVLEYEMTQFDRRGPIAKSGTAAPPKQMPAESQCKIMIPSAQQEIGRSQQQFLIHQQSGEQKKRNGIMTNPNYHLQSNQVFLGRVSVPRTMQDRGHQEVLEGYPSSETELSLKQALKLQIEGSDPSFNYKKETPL
UniProt Q86YJ7: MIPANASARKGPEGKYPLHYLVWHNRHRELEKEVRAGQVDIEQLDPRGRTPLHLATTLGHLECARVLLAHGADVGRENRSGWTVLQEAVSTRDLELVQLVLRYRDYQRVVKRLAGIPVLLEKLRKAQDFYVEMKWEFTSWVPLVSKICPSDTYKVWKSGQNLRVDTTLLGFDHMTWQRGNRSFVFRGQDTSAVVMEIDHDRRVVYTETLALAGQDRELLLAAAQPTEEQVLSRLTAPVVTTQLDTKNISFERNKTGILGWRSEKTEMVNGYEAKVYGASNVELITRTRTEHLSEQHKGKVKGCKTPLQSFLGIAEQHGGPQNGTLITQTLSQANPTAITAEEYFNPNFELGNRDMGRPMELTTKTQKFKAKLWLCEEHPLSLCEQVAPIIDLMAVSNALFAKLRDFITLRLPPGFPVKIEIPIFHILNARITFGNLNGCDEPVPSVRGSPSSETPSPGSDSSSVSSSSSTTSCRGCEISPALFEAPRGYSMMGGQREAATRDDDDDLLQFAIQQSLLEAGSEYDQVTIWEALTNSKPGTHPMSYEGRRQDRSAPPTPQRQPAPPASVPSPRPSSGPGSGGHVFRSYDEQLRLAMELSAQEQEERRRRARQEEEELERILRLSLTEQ
UniProt Q9BT30: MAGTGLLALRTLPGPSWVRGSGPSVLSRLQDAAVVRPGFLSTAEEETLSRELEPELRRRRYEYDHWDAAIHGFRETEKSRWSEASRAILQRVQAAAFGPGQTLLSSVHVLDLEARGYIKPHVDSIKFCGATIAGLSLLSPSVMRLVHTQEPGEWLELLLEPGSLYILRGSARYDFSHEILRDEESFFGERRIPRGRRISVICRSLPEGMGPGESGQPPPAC

The list shows a part of the results.

Compound in the assay: c1cn2cc(-c3ccc4cn[nH]c4c3)nc(Nc3ccc(N4CCOCC4)cc3)c2n1 [entospletinib]
The experiment in a line: log2 fold change, soluble protein after heating vs DMSO (PISA); higher = thermal stabilisation; K562 lysate, 10 uM; active = over 0.2 and 3.5 SD of the protein, either way, in both replicates (recomputed). In short, it runs like this: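 The values are log-two fold changes in thermal stability compared with solvent controls and come from duplicates. They were obtained by TMTpro 16plex LC-MS/MS, with channel sums equalised, on the supernatant after 21,000xg for 90 min. That supernatant came from crude K562 extract at 1 mg/mL protein treated with 10 μM compound for 30 min, heated for 3 min across 48°C-58°C, pooled and brought to 0.5% NP-40 at 4°C.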
As to ALDOA (UniProt H3BPS8), the log2 fold change is inactive: -0.069.
In the case of ANKRD12 (UniProt Q6UB98), the log2 fold change is inactive: -0.047.
Under ALDH1A3 (UniProt P47895) stands inactive: -0.441; under ANKS6 isoform 4 (UniProt Q68DC2), inactive: -0.095; under AKTIP isoform 2 (UniProt Q9H8T0), inactive: 0.065.
Regarding ANKRD44 isoform 2 (UniProt Q8N8A2), the log2 fold change was inactive: -0.115.
To ANAPC15 isoform 2 (UniProt P60006) belongs inactive: 0.116.
ANKRD31 (UniProt Q8N7Z5): the log2 fold change is inactive: 0.005.
Take ANKRD16 (UniProt Q6P6B7): the log2 fold change was inactive: -0.045.
ANKHD1 isoform 2 (UniProt Q8IWZ3): the log2 fold change was inactive: -0.022.
As to ALG12 (UniProt Q9BV10), the log2 fold change is inactive: 0.051.
As to AMOT (UniProt Q4VCS5), the log2 fold change was inactive: 0.032.
As to ANKS3 (UniProt Q6ZW76), the log2 fold change is inactive: 0.014.
Regarding ALAS1 (UniProt P13196), the log2 fold change was inactive: 0.05.
To ANP32E isoform 3 (UniProt Q9BTT0) belongs inactive: -0.095; to ANAPC13 (UniProt Q9BS18), inactive: -0.107; to ANXA6 (UniProt E5RK69), inactive: 0.033.
Regarding ANKRD30A (UniProt Q9BXX3), the log2 fold change is inactive: -0.135.
In the case of ANKRD50 (UniProt Q9ULJ7), the log2 fold change was inactive: -0.095.
As to ANKRD13B (UniProt Q86YJ7), the log2 fold change is inactive: -0.119.
In the case of ALKBH7 (UniProt Q9BT30), the log2 fold change was inactive: 0.151.
